Some results were stated once for a whole list of compounds, not compound by compound.
Each compound was assayed against T1, human AR (Homo sapiens, UniProt P10275) (assay: AR functional assay (agonist mode), MMTV luciferase reporter in transfected CV-1 cells). Settings: CV-1 cells transfected with human AR and MMTV luciferase, values said to be exemplary only.
T1 sequence (P10275 560-920 limits assumed): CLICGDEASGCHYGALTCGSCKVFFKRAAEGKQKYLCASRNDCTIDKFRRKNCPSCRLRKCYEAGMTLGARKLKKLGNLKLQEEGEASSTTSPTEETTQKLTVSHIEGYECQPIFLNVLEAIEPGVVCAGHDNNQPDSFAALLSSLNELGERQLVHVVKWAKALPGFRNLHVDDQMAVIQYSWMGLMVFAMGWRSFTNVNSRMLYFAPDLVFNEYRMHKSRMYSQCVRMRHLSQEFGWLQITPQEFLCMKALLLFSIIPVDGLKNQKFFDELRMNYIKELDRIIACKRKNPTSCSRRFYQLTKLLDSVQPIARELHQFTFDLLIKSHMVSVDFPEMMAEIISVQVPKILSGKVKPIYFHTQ
Type: cell-based

| Compound | pIC50 in the agonist mode of the AR functional assay |
| --- | --- |
| CCc1cc2c(C(F)(F)F)c(C#N)ccc2n1CC1CC1 [Example 149, 1-(Cyclopropylmethyl)-2-ethyl-4-(trifluoromethyl)-1H-indole-5-carbonitrile] | ≥ 5.01 |
| C=CCn1c(CC)cc2c(C(F)(F)F)c(C#N)ccc21 [Example 150, 2-Ethyl-1-(2-propen-1-yl)-4-(trifluoromethyl)-1H-indole-5-carbonitrile] | ≥ 5.01 |
| CCc1cc2c(C(F)(F)F)c(C#N)ccc2n1Cc1noc(-c2cc(C(F)(F)F)cc(C(F)(F)F)c2)n1 [Example 151, 1-({5-[3,5-Bis(trifluoromethyl)phenyl]-1,2,4-oxadiazol-3-yl}methyl)-2-ethyl-4-(trifluoromethyl)-1H-indole-5-carbonitrile] | ≥ 5.01 |
| CCCc1cc2c(C(F)(F)F)c(C#N)ccc2n1CC1CC1 [Example 153, 1-(Cyclopropylmethyl)-2-propyl-4-(trifluoromethyl)-1H-indole-5-carbonitrile] | ≥ 5.01 |
| CCCc1cc2c(C(F)(F)F)c(C#N)ccc2n1Cc1noc(-c2cc(C(F)(F)F)cc(C(F)(F)F)c2)n1 [Example 155, 1-({5-[3,5-Bis(trifluoromethyl)phenyl]-1,2,4-oxadiazol-3-yl}methyl)-2-propyl-4-(trifluoromethyl)-1H-indole-5-carbonitrile] | ≥ 5.01 |
| CCCc1cc2c(C(F)(F)F)c(C#N)ccc2n1Cc1noc(-c2cc(F)cc(F)c2)n1 [Example 156, 1-{[5-(3,5-Difluorophenyl)-1,2,4-oxadiazol-3-yl]methyl}-2-propyl-4-(trifluoromethyl)-1H-indole-5-carbonitrile] | ≥ 5.01 |
| CCCc1cc2c(C(F)(F)F)c(C#N)ccc2n1Cc1nnc(-c2cncc(Br)c2)o1 [Example 157, 1-{[5-(5-Bromo-3-pyridinyl)-1,3,4-oxadiazol-2-yl]methyl}-2-propyl-4-(trifluoromethyl)-1H-indole-5-carbonitrile] | ≥ 5.01 |
| CCCc1cc2c(C(F)(F)F)c(C#N)ccc2n1CC(N)=O [Example 158, 2-[5-Cyano-2-propyl-4-(trifluoromethyl)-1H-indol-1-yl]acetamide] | ≥ 5.01 |
| CCCCc1cc2c(C(F)(F)F)c(C#N)ccc2n1CC1CC1 [Example 159, 2-Butyl-1-(cyclopropylmethyl)-4-(trifluoromethyl)-1H-indole-5-carbonitrile] | ≥ 5.01 |
| CCCCc1cc2c(C(F)(F)F)c(C#N)ccc2n1Cc1noc(-c2cccc(C(F)(F)F)c2)n1 [Example 160, 2-Butyl-4-(trifluoromethyl)-1-({5-[3-(trifluoromethyl)phenyl]-1,2,4-oxadiazol-3-yl}methyl)-1H-indole-5-carbonitrile] | ≥ 5.01 |
| CCCCc1cc2c(C(F)(F)F)c(C#N)ccc2n1Cc1noc(-c2cc(C(F)(F)F)cc(C(F)(F)F)c2)n1 [Example 161, 1-({5-[3,5-Bis(trifluoromethyl)phenyl]-1,2,4-oxadiazol-3-yl}methyl)-2-butyl-4-(trifluoromethyl)-1H-indole-5-carbonitrile] | ≥ 5.01 |
| CCCCc1cc2c(C(F)(F)F)c(C#N)ccc2n1Cc1noc(-c2cc(F)cc(F)c2)n1 [Example 162, 2-Butyl-1-{[5-(3,5-difluorophenyl)-1,2,4-oxadiazol-3-yl]methyl}-4-(trifluoromethyl)-1H-indole-5-carbonitrile] | ≥ 5.01 |
| CCCCc1cc2c(C(F)(F)F)c(C#N)ccc2n1Cc1nnc(-c2cncc(Br)c2)o1 [Example 163, 1-{[5-(5-Bromo-3-pyridinyl)-1,3,4-oxadiazol-2-yl]methyl}-2-butyl-4-(trifluoromethyl)-1H-indole-5-carbonitrile] | ≥ 5.01 |
| CCCCc1cc2c(C(F)(F)F)c(C#N)ccc2n1CC(N)=O [Example 164, 2-[2-Butyl-5-cyano-4-(trifluoromethyl)-1H-indol-1-yl]acetamide] | ≥ 5.01 |
| N#Cc1ccc2c(cc(C3CC3)n2CC2CC2)c1C(F)(F)F [Example 165, 2-Cyclopropyl-1-(cyclopropylmethyl)-4-(trifluoromethyl)-1H-indole-5-carbonitrile] | ≥ 5.01 |
| N#Cc1ccc2c(cc(C3CC3)n2Cc2noc(-c3cc(C(F)(F)F)cc(C(F)(F)F)c3)n2)c1C(F)(F)F [Example 166, 1-({5-[3,5-Bis(trifluoromethyl)phenyl]-1,2,4-oxadiazol-3-yl}methyl)-2-cyclopropyl-4-(trifluoromethyl)-1H-indole-5-carbonitrile] | ≥ 5.01 |

| Compound | pIC50 in the agonist mode of the AR functional assay |
| --- | --- |
| N#Cc1ccc2c(cc(C3CC3)n2Cc2noc(-c3cccc(C(F)(F)F)c3)n2)c1C(F)(F)F [Example 167, 2-Cyclopropyl-4-(trifluoromethyl)-1-({5-[3-(trifluoromethyl)phenyl]-1,2,4-oxadiazol-3-yl}methyl)-1H-indole-5-carbonitrile] | ≥ 5.01 |
| N#Cc1ccc2c(cc(C3CC3)n2Cc2nnc(-c3cncc(Br)c3)o2)c1C(F)(F)F [Example 168, 1-{[5-(5-Bromo-3-pyridinyl)-1,3,4-oxadiazol-2-yl]methyl}-2-cyclopropyl-4-(trifluoromethyl)-1H-indole-5-carbonitrile] | ≥ 5.01 |
| N#Cc1ccc2c(cc(C3CC3)n2Cc2noc(-c3cc(F)cc(F)c3)n2)c1C(F)(F)F [Example 169, 2-Cyclopropyl-1-{[5-(3,5-difluorophenyl)-1,2,4-oxadiazol-3-yl]methyl}-4-(trifluoromethyl)-1H-indole-5-carbonitrile] | ≥ 5.01 |
| N#Cc1ccc2c(cc(C3CC3)n2CC(N)=O)c1C(F)(F)F [Example 170, 2-[5-Cyano-2-cyclopropyl-4-(trifluoromethyl)-1H-indol-1-yl]acetamide] | ≥ 5.01 |
| CC(C)Cc1cc2c(C(F)(F)F)c(C#N)ccc2n1CC1CC1 [Example 171, 1-(Cyclopropylmethyl)-2-(2-methylpropyl)-4-(trifluoromethyl)-1H-indole-5-carbonitrile] | ≥ 5.01 |
| CC(C)Cc1cc2c(C(F)(F)F)c(C#N)ccc2n1Cc1noc(-c2cc(C(F)(F)F)cc(C(F)(F)F)c2)n1 [Example 172, 1-({5-[3,5-Bis(trifluoromethyl)phenyl]-1,2,4-oxadiazol-3-yl}methyl)-2-(2-methylpropyl)-4-(trifluoromethyl)-1H-indole-5-carbonitrile] | ≥ 5.01 |
| CC(C)Cc1cc2c(C(F)(F)F)c(C#N)ccc2n1Cc1noc(-c2cccc(C(F)(F)F)c2)n1 [Example 173, 2-(2-Methylpropyl)-4-(trifluoromethyl)-1-({5-[3-(trifluoromethyl)phenyl]-1,2,4-oxadiazol-3-yl}methyl)-1H-indole-5-carbonitrile] | ≥ 5.01 |
| CC(C)Cc1cc2c(C(F)(F)F)c(C#N)ccc2n1Cc1noc(-c2cc(F)cc(F)c2)n1 [Example 174, 1-{[5-(3,5-Difluorophenyl)-1,2,4-oxadiazol-3-yl]methyl}-2-(2-methylpropyl)-4-(trifluoromethyl)-1H-indole-5-carbonitrile] | ≥ 5.01 |
| CC(C)Cc1cc2c(C(F)(F)F)c(C#N)ccc2n1Cc1nnc(-c2cncc(Br)c2)o1 [Example 175, 1-{[5-(5-Bromo-3-pyridinyl)-1,3,4-oxadiazol-2-yl]methyl}-2-(2-methylpropyl)-4-(trifluoromethyl)-1H-indole-5-carbonitrile] | ≥ 5.01 |
| CC(C)Cc1cc2c(C(F)(F)F)c(C#N)ccc2n1CC(N)=O [Example 176, 2-[5-Cyano-2-(2-methylpropyl)-4-(trifluoromethyl)-1H-indol-1-yl]acetamide] | ≥ 5.01 |
| CC1Cc2c(ccc(Br)c2C(F)(F)F)N1CC1CC1 (centres unmarked) [Example 177, 5-Bromo-1-(cyclopropylmethyl)-2-methyl-4-(trifluoromethyl)-2,3-dihydro-1H-indole] | ≥ 5.01 |
| CC1Cc2c(ccc(Br)c2C(F)(F)F)N1Cc1noc(-c2cccc(C(F)(F)F)c2)n1 (centres unmarked) [Example 178, 5-Bromo-2-methyl-4-(trifluoromethyl)-1-({5-[3-(trifluoromethyl)phenyl]-1,2,4-oxadiazol-3-yl}methyl)-2,3-dihydro-1H-indole] | ≥ 5.01 |
| CC1Cc2c(ccc(C#N)c2C(F)(F)F)N1CC1CC1 (centres unmarked) [Example 179, 1-(Cyclopropylmethyl)-2-methyl-4-(trifluoromethyl)-2,3-dihydro-1H-indole-5-carbonitrile] | ≥ 5.01 |
| CC1Cc2c(ccc(C#N)c2C(F)(F)F)N1CC(N)=O (centres unmarked) [Example 180, 2-[5-Cyano-2-methyl-4-(trifluoromethyl)-2,3-dihydro-1H-indol-1-yl]acetamide] | ≥ 5.01 |
| CC1Cc2c(ccc(C#N)c2C(F)(F)F)N1Cc1cscn1 (centres unmarked) [Example 181, 2-Methyl-1-(1,3-thiazol-4-ylmethyl)-4-(trifluoromethyl)-2,3-dihydro-1H-indole-5-carbonitrile] | ≥ 5.01 |
| CC1Cc2c(ccc(C#N)c2C(F)(F)F)N1Cc1cccc(C#N)c1 (centres unmarked) [Example 182, 1-[(3-Cyanophenyl)methyl]-2-methyl-4-(trifluoromethyl)-2,3-dihydro-1H-indole-5-carbonitrile] | ≥ 5.01 |

From US8026262B2, “Chemical compounds” (GlaxoSmithKline LLC, priority 2006, dated 2011)
